Measured values taken from paper doi:10.1101/2024.02.11.579811.
No constants are given. Whether binding was seen depends on the method and setting.

The chains behind the UniProt entries cited, without tags or fusion partners.
UniProt P27695: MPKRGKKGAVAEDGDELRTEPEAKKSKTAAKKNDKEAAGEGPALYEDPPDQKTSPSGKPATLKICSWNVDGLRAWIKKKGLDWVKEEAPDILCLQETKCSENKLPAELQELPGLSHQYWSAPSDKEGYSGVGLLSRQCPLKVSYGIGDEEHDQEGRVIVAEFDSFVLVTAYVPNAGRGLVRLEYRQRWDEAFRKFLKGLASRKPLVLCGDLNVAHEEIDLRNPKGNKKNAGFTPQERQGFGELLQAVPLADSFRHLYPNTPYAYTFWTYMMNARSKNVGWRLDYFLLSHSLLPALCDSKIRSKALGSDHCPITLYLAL

Biological target: Apurinic/apyrimidinic endonuclease 1 (APE1) (UniProt P27695)
Experiment: atomic force microscopy

binding: no binding (tested: 1 nM)
Substance: Apurinic/apyrimidinic endonuclease 1 (APE1) (from UniProt P27695 1-318) (enzyme; other documents disagree on this pair)
